Data taken from PubChem BioAssay AID330 (DTP/NCI, 2004).
The list is a part of this screen's results and no random one: it gathers tests that were run many times, whatever their T/C, doses with no T/C, and many T/C values between a quarter and a half above the control. Other doses and runs of a compound stand elsewhere. T/C is the treated group as % of the vehicle group. Some doses have a count of surviving animals in place of a T/C: the source holds a T/C of zero for them, seemingly a mark for toxic or unscored doses. Some doses without a T/C left all or most animals alive at the check, yet need not have been tolerated: the source hardly ever lists a survival T/C far under the control, and the zero likely stands for such cases as well. Counts of survivors are from the toxicity check (mostly the fifth day) where no day follows; animals may have died later. Schedule codes are those of the source, taken here to give the interval after Q, in days (D) or hours (H), and the number of doses after X. Some doses were run more than once; the results are listed from low to high. Where survival is the endpoint, this PubChem deposit counts one and a half times the control or more as active, and values a quarter to a half above the control carry no call in these data; other NCI protocols may use other cut-offs. Some T/C values are followed by the survivors on the day toxicity was checked, most often the fifth; where none is given, no animal had died by that day. Marks such as (2×) give the number of equal values in this list.

System: P388 leukemia ip, CD2F1 mice, survival T/C
Assay: NCI In Vivo Anticancer Drug Screen. Data for tumor model P388 Leukemia (intraperitoneal) in CD2F1 (CDF1) mice
Conditions: T/C endpoint: median survival time, higher T/C = longer survival
[1] = dose: 125.0 mg/kg/injection, schedule: Q01DX001 (ip), vehicle: Klucel (hydroxypropylcellulose) (HPC)
[2] = dose: 150.0 mg/kg/injection, schedule: Q04DX003 (ip), vehicle: Klucel (hydroxypropylcellulose) (HPC)
[3] = dose: 250.0 mg/kg/injection, schedule: Q01DX001 (ip), vehicle: Klucel (hydroxypropylcellulose) (HPC)

What does the source list for `CCCCCCCCCCCCCCCC(=O)OCC1OC(n2ccc(N)nc2=O)C(O)C1O` (stereo not given)?
survivor count (dose: 62.5 mg/kg/injection, schedule: Q01DX001 (ip), vehicle: Klucel (hydroxypropylcellulose) (HPC)): 6 of 6; T/C (dose: 75.0 mg/kg/injection, schedule: Q04DX002 (ip), vehicle: Klucel (hydroxypropylcellulose) (HPC), evaluated on day 30): 144, 169 [5 of 6 alive], 170, 175, 208, 221, 227, 228, 231, 234, 248, 250, 251, 252, 254, 259, 260 (3×), 263 [2 of 2 alive], 265, 267, 272, 274, 275, 283 (2×), 284, 285, 288, 296 % of control; T/C (dose: 75.0 mg/kg/injection, schedule: Q04DX002 (ip), vehicle: Klucel (hydroxypropylcellulose) (HPC), evaluated on day 35): 240, 254, 317 % of control; survivor count (dose: 75.0 mg/kg/injection, schedule: Q04DX002 (ip), vehicle: Klucel (hydroxypropylcellulose) (HPC)): 3 of 3 and 6 of 6; T/C (dose: 75.0 mg/kg/injection, schedule: Q04DX003 (ip), vehicle: Klucel (hydroxypropylcellulose) (HPC)): 150, 176, 207, 221, 223, 229, 240 [2 of 3 alive], 242, 243, 247, 249, 256 (2×), 257, 258, 260, 262, 265 (2×), 265 [4 of 6 alive], 267, 270 (2×), 274 (2×), 277 (2×), 283, 285, 288, 290, 291, 294, 300 % of control; T/C (dose: 100.0 mg/kg/injection, schedule: Q01DX001 (ip), vehicle: saline with Tween-80, evaluated on day 5): 212 and 409 % of control; T/C (dose: 100.0 mg/kg/injection, schedule: Q01DX001 (ip), vehicle: saline with Tween-80, evaluated on day 47): 251 % of control; T/C (dose: 100.0 mg/kg/injection, schedule: Q01DX001 (ip), vehicle: saline with Tween-80, evaluated on day 48): 226 % of control; T/C (dose: 100.0 mg/kg/injection, schedule: Q01DX001 (ip), vehicle: saline with Tween-80, evaluated on day 60): 206, 262, 295 % of control; T/C [1]: 102, 114, 128, 158, 163, 209 [5 of 6 alive], 215, 230, 250, 256, 258, 259, 260 (2×), 262, 265 (2×), 268, 270, 272 (2×), 277 (2×), 278, 285 (2×), 290, 297 (2×), 297 [5 of 6 alive], 300 % of control; survivor count [1]: 6 of 6; T/C (dose: 125.0 mg/kg/injection, schedule: Q01DX001 (ip), vehicle: saline with Tween-80, evaluated on day 5): 200 and 569 % of control; T/C (dose: 125.0 mg/kg/injection, schedule: Q01DX001 (ip), vehicle: saline with Tween-80, evaluated on day 30): 207, 275, 285, 291, 300, 306 % of control; T/C (dose: 125.0 mg/kg/injection, schedule: Q01DX001 (ip), vehicle: saline with Tween-80, evaluated on day 44): 333 and 396 % of control; T/C (dose: 125.0 mg/kg/injection, schedule: Q01DX001 (ip), vehicle: saline with Tween-80, evaluated on day 45): 210, 300, 365, 375, 420, 445 % of control; T/C (dose: 125.0 mg/kg/injection, schedule: Q01DX001 (ip), vehicle: saline with Tween-80, evaluated on day 47): 292 and 310 % of control; T/C (dose: 125.0 mg/kg/injection, schedule: Q01DX001 (ip), vehicle: saline with Tween-80, evaluated on day 48): 252 % of control; T/C (dose: 125.0 mg/kg/injection, schedule: Q01DX001 (ip), vehicle: saline with Tween-80, evaluated on day 60): 185, 255, 277, 346, 373, 382, 396, 504, 588, 631 % of control; T/C (dose: 150.0 mg/kg/injection, schedule: Q01DX001 (ip), vehicle: saline with Tween-80, evaluated on day 20): 181 % of control; T/C (dose: 150.0 mg/kg/injection, schedule: Q01DX001 (ip), vehicle: saline with Tween-80, evaluated on day 30): 256, 275, 285, 291, 300, 306 % of control; T/C (dose: 150.0 mg/kg/injection, schedule: Q01DX001 (ip), vehicle: saline with Tween-80, evaluated on day 44): 342 and 396 % of control; T/C (dose: 150.0 mg/kg/injection, schedule: Q01DX001 (ip), vehicle: saline with Tween-80, evaluated on day 45): 226, 284, 326, 415, 420, 432 % of control; T/C (dose: 150.0 mg/kg/injection, schedule: Q01DX001 (ip), vehicle: saline with Tween-80, evaluated on day 47): 292 and 336 % of control; T/C (dose: 150.0 mg/kg/injection, schedule: Q01DX001 (ip), vehicle: saline with Tween-80, evaluated on day 48): 291 % of control; T/C (dose: 150.0 mg/kg/injection, schedule: Q01DX001 (ip), vehicle: saline with Tween-80, evaluated on day 60): 285, 310 [9 of 10 alive], 357, 517, 554, 576 (2×), 588 (2×), 631 % of control; T/C (dose: 150.0 mg/kg/injection, schedule: Q04DX002 (ip), vehicle: Klucel (hydroxypropylcellulose) (HPC), evaluated on day 30): 90, 95, 113, 115, 121, 131, 134, 135 [5 of 6 alive], 165, 178, 184, 195, 224, 225, 251, 260 [2 of 3 alive], 263, 265, 267, 272, 275, 275 [5 of 6 alive], 280, 283 (2×), 284 (2×), 285 % of control; T/C (dose: 150.0 mg/kg/injection, schedule: Q04DX002 (ip), vehicle: Klucel (hydroxypropylcellulose) (HPC), evaluated on day 35): 210, 318, 326 % of control; survivor count (dose: 150.0 mg/kg/injection, schedule: Q04DX002 (ip), vehicle: Klucel (hydroxypropylcellulose) (HPC)): 3 of 3 and 6 of 6; T/C [2]: 88, 91, 92 (3×), 94, 97, 99, 100, 105, 107, 108 (3×), 110 (2×), 113, 114 (2×), 115, 116, 119, 120 (2×), 125, 127, 145, 208, 245, 262, 265, 266 % of control [5 of 6 alive]; survivor count [2]: 3 of 3; T/C [3]: 151, 171 [5 of 6 alive], 175, 179, 191, 210, 220, 241 [5 of 6 alive], 253, 256, 258, 260, 267 (2×), 270, 272 (2×), 275, 277, 282, 283, 285, 287, 288, 296, 297 (2×), 300 % of control; survivor count [3]: 3 of 3 and 6 of 6; survivor count (dose: 250.0 mg/kg/injection, schedule: Q04DX002 (ip), vehicle: Klucel (hydroxypropylcellulose) (HPC)): 3 of 3 and 6 of 6; survivor count (dose: 300.0 mg/kg/injection, schedule: Q01DX001 (ip), vehicle: saline with Tween-80): 6 of 6; survivor count (dose: 600.0 mg/kg/injection, schedule: Q01DX001 (ip), vehicle: saline with Tween-80): 2 of 6
